Test results from the supplement of paper PMC10849652.
Some of the results follow. Residues, ends and D or L forms follow the SMILES beside them. *: point of attachment. Cbz = O=C(OCc1ccccc1)*

Sequences of proteins named here, by UniProt entry; tags and fusion partners are left off. A change or cut given only in a name is not applied to a line headed by its entry.
UniProt P50747: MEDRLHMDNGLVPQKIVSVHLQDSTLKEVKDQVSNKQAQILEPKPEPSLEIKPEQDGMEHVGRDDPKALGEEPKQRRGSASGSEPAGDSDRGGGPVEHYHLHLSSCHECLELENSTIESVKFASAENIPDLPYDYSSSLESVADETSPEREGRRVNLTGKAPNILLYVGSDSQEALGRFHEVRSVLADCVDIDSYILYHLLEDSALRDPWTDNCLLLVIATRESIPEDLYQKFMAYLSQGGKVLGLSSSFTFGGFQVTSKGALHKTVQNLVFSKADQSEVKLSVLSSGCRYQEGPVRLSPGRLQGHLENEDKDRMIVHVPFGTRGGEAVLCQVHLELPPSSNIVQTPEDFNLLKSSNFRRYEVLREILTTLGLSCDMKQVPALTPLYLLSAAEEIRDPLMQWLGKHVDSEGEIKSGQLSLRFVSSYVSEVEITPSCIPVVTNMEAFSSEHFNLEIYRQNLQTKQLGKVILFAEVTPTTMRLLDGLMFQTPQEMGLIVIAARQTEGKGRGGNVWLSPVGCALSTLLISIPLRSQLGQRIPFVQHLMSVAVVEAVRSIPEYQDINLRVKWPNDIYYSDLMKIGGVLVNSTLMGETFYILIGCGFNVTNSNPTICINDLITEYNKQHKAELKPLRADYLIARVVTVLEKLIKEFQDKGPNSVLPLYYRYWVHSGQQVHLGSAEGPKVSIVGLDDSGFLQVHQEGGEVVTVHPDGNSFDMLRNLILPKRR
UniProt P31942: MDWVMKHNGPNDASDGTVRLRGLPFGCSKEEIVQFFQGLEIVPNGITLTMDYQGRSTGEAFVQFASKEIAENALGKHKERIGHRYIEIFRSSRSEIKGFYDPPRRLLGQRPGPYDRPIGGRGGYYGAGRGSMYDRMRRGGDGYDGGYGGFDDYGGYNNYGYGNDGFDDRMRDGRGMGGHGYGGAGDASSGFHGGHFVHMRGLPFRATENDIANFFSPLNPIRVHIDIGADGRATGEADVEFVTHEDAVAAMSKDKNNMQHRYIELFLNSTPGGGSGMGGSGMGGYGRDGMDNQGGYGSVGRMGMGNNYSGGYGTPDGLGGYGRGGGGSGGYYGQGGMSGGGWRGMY
UniProt P13598: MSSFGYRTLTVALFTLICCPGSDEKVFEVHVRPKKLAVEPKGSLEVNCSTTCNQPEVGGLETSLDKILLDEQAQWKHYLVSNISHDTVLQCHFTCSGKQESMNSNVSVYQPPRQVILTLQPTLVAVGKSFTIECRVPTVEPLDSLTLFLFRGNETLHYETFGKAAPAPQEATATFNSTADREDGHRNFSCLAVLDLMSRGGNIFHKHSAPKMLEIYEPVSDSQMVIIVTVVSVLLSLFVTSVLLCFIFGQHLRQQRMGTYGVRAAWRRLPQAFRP
UniProt Q8TCT9: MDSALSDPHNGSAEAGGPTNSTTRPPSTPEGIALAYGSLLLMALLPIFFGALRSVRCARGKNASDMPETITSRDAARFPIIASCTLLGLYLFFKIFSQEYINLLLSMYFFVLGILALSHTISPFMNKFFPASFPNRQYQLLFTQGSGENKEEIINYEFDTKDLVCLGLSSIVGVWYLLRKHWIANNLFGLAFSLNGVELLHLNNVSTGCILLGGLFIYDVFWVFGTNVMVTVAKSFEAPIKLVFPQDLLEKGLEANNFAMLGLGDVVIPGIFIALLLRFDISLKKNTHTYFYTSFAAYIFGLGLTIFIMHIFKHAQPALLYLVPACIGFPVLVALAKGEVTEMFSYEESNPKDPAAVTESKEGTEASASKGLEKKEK
UniProt P82970: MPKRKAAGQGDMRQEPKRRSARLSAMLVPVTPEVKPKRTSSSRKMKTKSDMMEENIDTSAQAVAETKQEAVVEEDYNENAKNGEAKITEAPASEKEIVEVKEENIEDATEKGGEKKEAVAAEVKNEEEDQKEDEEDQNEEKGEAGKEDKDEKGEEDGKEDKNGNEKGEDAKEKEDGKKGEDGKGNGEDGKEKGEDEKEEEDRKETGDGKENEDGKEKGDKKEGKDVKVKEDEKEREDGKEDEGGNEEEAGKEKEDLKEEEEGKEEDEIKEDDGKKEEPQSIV
UniProt P51991: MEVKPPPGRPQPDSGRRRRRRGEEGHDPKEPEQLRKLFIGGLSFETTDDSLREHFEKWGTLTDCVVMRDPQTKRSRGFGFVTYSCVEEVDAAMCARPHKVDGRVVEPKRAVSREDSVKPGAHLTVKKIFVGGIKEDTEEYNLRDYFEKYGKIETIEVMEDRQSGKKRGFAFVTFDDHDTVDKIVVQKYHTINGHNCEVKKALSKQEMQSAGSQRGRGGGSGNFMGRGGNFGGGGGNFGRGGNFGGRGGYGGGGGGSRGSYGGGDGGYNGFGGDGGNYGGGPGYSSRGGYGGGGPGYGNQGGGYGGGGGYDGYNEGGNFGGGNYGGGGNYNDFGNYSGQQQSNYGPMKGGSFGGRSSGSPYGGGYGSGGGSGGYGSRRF
UniProt Q5T440: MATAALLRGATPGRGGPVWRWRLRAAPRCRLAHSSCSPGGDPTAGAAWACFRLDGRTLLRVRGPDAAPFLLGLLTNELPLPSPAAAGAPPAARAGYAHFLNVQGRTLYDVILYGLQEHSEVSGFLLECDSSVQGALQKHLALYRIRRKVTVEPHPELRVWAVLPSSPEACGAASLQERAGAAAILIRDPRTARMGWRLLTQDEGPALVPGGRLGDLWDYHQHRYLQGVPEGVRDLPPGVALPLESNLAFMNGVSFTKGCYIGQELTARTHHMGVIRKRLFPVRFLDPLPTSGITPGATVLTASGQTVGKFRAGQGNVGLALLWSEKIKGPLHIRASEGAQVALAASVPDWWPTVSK
UniProt Q15651: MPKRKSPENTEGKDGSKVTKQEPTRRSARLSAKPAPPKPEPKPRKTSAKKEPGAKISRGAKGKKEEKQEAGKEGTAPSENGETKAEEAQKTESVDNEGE
UniProt O43390: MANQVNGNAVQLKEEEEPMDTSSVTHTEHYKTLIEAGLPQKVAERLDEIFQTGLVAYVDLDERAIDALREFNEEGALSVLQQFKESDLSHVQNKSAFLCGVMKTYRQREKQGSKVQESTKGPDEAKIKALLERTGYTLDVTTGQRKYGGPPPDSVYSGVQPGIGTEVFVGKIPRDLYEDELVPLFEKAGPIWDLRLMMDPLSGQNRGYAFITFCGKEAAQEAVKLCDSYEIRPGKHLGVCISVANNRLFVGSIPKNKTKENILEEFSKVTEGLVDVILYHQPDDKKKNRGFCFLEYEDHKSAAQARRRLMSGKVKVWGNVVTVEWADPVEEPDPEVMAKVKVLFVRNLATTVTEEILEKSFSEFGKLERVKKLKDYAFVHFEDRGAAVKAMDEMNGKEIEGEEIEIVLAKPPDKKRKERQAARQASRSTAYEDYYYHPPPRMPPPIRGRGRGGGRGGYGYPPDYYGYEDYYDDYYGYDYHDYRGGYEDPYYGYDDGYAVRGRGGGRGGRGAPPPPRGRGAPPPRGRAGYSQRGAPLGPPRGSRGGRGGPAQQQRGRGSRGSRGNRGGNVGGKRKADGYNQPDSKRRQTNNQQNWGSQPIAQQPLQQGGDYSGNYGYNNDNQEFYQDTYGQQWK
UniProt Q99714: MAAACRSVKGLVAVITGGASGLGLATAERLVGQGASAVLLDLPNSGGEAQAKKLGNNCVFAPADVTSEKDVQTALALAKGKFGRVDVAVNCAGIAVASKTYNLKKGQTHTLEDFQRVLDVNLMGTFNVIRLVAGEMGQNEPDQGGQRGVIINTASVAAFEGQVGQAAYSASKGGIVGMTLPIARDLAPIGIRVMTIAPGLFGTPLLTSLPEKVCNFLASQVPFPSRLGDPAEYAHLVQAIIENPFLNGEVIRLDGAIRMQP
UniProt P51659: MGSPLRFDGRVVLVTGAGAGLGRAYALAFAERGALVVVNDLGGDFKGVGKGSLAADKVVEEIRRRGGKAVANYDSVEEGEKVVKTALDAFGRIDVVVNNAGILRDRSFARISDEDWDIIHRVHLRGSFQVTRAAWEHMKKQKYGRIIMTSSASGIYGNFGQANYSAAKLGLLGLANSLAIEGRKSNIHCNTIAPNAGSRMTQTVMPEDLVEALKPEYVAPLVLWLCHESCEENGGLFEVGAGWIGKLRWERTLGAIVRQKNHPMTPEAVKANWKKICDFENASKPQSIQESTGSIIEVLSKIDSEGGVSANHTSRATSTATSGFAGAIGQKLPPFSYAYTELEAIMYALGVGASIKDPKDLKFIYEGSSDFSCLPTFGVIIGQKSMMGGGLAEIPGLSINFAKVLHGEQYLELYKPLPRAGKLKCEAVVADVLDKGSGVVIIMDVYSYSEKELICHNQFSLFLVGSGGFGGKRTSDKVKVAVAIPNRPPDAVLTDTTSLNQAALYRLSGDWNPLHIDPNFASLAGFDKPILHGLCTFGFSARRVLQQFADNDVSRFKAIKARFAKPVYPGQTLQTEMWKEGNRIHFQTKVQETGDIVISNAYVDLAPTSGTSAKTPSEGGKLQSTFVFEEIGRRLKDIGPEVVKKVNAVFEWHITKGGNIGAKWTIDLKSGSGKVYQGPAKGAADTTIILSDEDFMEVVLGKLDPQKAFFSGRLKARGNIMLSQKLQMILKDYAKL
UniProt P11021: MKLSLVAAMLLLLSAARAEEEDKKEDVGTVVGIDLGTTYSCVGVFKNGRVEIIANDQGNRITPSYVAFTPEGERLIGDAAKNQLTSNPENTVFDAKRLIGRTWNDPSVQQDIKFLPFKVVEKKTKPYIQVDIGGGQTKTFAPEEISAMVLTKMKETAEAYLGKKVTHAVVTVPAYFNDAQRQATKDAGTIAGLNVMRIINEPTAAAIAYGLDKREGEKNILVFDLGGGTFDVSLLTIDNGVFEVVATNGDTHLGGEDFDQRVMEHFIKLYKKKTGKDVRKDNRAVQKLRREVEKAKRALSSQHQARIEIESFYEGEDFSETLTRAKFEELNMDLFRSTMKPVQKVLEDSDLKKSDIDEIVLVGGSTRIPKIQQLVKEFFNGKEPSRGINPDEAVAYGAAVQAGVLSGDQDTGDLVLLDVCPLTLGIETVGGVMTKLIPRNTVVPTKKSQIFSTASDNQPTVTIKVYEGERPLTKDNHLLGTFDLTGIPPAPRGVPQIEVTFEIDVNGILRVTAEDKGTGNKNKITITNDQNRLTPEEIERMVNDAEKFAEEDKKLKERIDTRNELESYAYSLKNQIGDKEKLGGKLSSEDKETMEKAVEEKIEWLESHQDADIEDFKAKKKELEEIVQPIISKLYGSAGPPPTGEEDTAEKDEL
UniProt Q9BW71: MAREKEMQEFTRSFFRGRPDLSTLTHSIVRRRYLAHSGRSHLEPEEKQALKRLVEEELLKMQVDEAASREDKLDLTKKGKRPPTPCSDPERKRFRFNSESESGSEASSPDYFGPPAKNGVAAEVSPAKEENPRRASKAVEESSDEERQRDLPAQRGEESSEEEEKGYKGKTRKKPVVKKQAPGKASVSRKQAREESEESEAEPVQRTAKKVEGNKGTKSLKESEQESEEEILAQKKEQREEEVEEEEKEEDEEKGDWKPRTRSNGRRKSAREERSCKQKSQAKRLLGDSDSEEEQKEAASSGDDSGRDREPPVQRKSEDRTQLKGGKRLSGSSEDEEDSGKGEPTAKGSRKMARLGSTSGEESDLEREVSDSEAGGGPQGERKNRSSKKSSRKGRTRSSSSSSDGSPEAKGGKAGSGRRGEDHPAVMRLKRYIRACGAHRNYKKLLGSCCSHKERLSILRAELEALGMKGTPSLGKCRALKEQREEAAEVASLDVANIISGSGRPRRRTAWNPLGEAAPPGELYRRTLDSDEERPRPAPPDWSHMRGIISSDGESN
UniProt P17096: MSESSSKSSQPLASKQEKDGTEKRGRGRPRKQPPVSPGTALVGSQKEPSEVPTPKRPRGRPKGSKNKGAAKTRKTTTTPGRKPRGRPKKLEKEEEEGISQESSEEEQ

Assays:
Test in all cases: log2 fold change, soluble protein after heating vs DMSO (PISA); higher = thermal stabilisation; K562 cells, 10 uM, 30 min; active = over 0.2 and 3.5 SD of the protein, either way, in both replicates (recomputed)
erlotinib = compound: C#Cc1cccc(Nc2ncnc3cc(OCCOC)c(OCCOC)cc23)c1 [erlotinib]
Method in brief: (§1)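 Quantification of soluble protein used TMTpro 16plex LC-MS/MS, with channel sums equalised. Samples were the supernatant after 21,000xg for 90 min of pooled aliquots from K562 cells (2×10^6 cells/mL) treated with 10 μM compound for 30 min, heated for 3 min over 48°C-58°C, and extracted in PBS with 0.5% NP-40 at 4°C. Values, from duplicates, describe thermal stability against control samples on a log2 fold-change scale.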

[1] = compound: C/C(=N\NC(=O)C1=CC(=CC=C1)S(=O)(=O)N2CCOCC2)/C3=C(C=CC(=C3)Cl)O
Method in brief: as §1

[2] = compound: C1=CC(=C(C=C1Cl)C2=NC3=NC=CN=C3C(=N2)NC4=CC=NC=C4)F
Method in brief: as §1

[3] = compound: C1=CC(=CC=C1C2=NC3=C(N2)C=C(C=C3)C(=O)N)OC4=CC=C(C=C4)Cl
Method in brief: as §1

[4] = compound: C1=CC2=C(C=CC(=C2)/C=C\3/C(=O)NC(=NCC4=CC=CS4)S3)N=C1
Method in brief: as §1

[5] = compound: C1=CC2=NC=CN=C2C=C1/C=C/3\C(=O)NC(=O)S3
Method in brief: as §1

[6] = compound: C1=CC=C(C=C1)C2=NC(=C(N2)C3=CC=NC=C3)C4=CC(=C(C=C4)Cl)O
Method in brief: as §1

[7] = compound: C1=CC=C2C(=C1)C3=NNC4=CC=CC(=C43)C2=O
Method in brief: as §1

[8] = compound: C1CCN(C1)C(=O)NC2=CC=CC(=C2)NC3=NC=C(C(=N3)NCCC4=CN=CN4)Br
Method in brief: as §1

[9] = compound: C1CN(CCC1(CC2=CC=C(C=C2)Cl)N)C3=NC=NC4=C3C=CN4
Method in brief: as §1

IRAK-1-4 Inhibitor I = compound: C1COCCN1CCN2C3=CC=CC=C3N=C2NC(=O)C4=CC(=CC=C4)[N+](=O)[O-] [IRAK-1-4 Inhibitor I]
Method in brief: as §1

ibrutinib = compound: C=CC(=O)N1CCC[C@@H](n2nc(-c3ccc(Oc4ccccc4)cc3)c3c(N)ncnc32)C1 [ibrutinib]
Method in brief: as §1

[10] = compound: CC(=O)c1cnc2ccc(-c3cc(Cl)c(O)c(Cl)c3)nc2c1N[C@H]1CC[C@H](CN(C)C)CC1
Method in brief: as §1

ralimetinib = compound: CC(C)(C)Cn1c(N)nc2ccc(-c3[nH]c(C(C)(C)C)nc3-c3ccc(F)cc3)nc21 [ralimetinib]
Method in brief: as §1

[11] = compound: CC(C)(O)CC(=O)NCCn1ccc2ncnc(Nc3ccc(Oc4cccc(C(F)(F)F)c4)c(Cl)c3)c21
Method in brief: as §1

[12] = compound: CC(C)C1=C2N=C(C=C(N2N=C1)NCC3=CC=CC=C3)NCCCCCCN
Method in brief: as §1

[13] = compound: CC(C)C[C@@H](C=O)NC(=O)[C@H](CC(C)C)NC(=O)[C@H](CC(C)C)NC(=O)OCc1ccccc1
Method in brief: as §1

pinometostat = compound: CC(C)N(C[C@H]1O[C@@H](n2cnc3c(N)ncnc32)[C@H](O)[C@@H]1O)[C@H]1C[C@@H](CCc2nc3cc(C(C)(C)C)ccc3[nH]2)C1 [pinometostat]
Method in brief: as §1

[14] = compound: CC1=C(C(CC(=O)N1)C2=CC=C(C=C2)C(F)(F)F)C(=O)NC3=C(C=C4C(=C3)C=NN4)F
Method in brief: as §1

[15] = compound: CC1=C(C2=C(C=C1)C(=O)C3=CC=CC=C3N2CCCN)C
Method in brief: as §1

Measured: log2 fold change

HLCS (UniProt P50747)
inactive: erlotinib -0.008 | [1] 0.079 | [2] 0.024 | [3] 0.004 | [4] 0.008 | [5] 0.015 | [6] -0.023 | [7] 0 | [8] -0.049 | [9] 0.016 | IRAK-1-4 Inhibitor I 0.024 | ibrutinib 0.014 | [10] -0.003 | ralimetinib 0.013 | [11] -0.016 | [12] -0.054 | [13] -0.044 | pinometostat -0.003 | [14] -0.003 | [15] 0.006

HNRNPH3 (UniProt P31942)
inactive: erlotinib 0.061 | [1] 0.079 | [2] -0.334 | [3] 0.134 | [4] -0.16 | [5] 0.064 | [6] 0.061 | [7] -0.065 | [8] -0.042 | [9] -0.19 | IRAK-1-4 Inhibitor I -0.158 | ibrutinib -0.044 | [10] 0.098 | ralimetinib 0.243 | [11] -0.011 | [12] -0.329 | [13] 0.248 | pinometostat 0.282 | [14] 0.13 | [15] -0.222

ICAM2 (UniProt P13598)
inactive: erlotinib -0.043 | [1] 0.052 | [2] -0.01 | [3] 0.016 | [4] 0.009 | [5] 0.015 | [6] 0.07 | [7] -0.095 | [8] -0.127 | [9] -0.019 | IRAK-1-4 Inhibitor I 0.04 | ibrutinib 0.063 | [10] -0.014 | ralimetinib 0.058 | [11] -0.041 | [12] 0.087 | [13] -0.051 | pinometostat -0.054 | [14] -0.056 | [15] 0.007

HM13 isoform 2 (UniProt Q8TCT9)
inactive: erlotinib 0.014 | [1] 0.017 | [2] 0.034 | [3] -0.016 | [4] 0.004 | [5] 0.033 | [6] -0.022 | [7] -0.03 | [8] 0.055 | [9] 0.056 | IRAK-1-4 Inhibitor I 0.03 | ibrutinib -0.019 | [10] 0.016 | ralimetinib -0.019 | [11] -0.045 | [12] 0.044 | [13] -0.037 | pinometostat -0.037 | [14] 0.007 | [15] -0.032

HMGN5 (UniProt P82970)
inactive: erlotinib -0.038 | [1] 0.055 | [2] 0.048 | [3] -0.005 | [4] -0.039 | [5] 0.066 | [6] 0 | [7] 0.031 | [8] -0.05 | [9] 0.114 | IRAK-1-4 Inhibitor I 0.001 | ibrutinib 0.02 | [10] 0.105 | ralimetinib -0.026 | [11] 0.011 | [12] 0.07 | [13] -0.006 | pinometostat -0.083 | [14] 0.017 | [15] -0.031

HNRNPA3 (UniProt P51991)
inactive: erlotinib -0.179 | [1] -0.103 | [2] -0.583 | [3] 0.03 | [4] -0.073 | [5] 0.046 | [6] -0.085 | [7] -0.009 | [8] -0.027 | [9] -0.085 | IRAK-1-4 Inhibitor I -0.2 | ibrutinib 0.075 | [10] 0.176 | ralimetinib 0.156 | [11] 0.221 | [12] 0.057 | [13] 0.093 | pinometostat 0.196 | [14] -0.045 | [15] -0.194

HMCN1 (UniProt Q96RW7)
inactive: erlotinib -0.336 | [1] 0.074 | [2] 0.225 | [3] 0.152 | [4] 0.177 | [5] 0 | [6] -0.016 | [7] 0 | [8] 0.19 | [9] 0.299 | IRAK-1-4 Inhibitor I 0.097 | ibrutinib 0.244 | [10] 0.103 | ralimetinib 0.006 | [11] 0.326 | [12] 0.146 | [13] -0.08 | pinometostat -0.259 | [14] 0.047 | [15] -0.237

IBA57 (UniProt Q5T440)
inactive: erlotinib 0.062 | [1] -0.008 | [2] 0.104 | [3] -0.014 | [4] 0.035 | [5] 0.028 | [6] -0.015 | [7] 0.066 | [8] 0.001 | [9] 0.038 | IRAK-1-4 Inhibitor I 0.084 | ibrutinib -0.035 | [10] -0.031 | ralimetinib -0.047 | [11] -0.004 | [12] -0.027 | [13] 0.084 | pinometostat 0.02 | [14] -0.011 | [15] 0.004

HMGN3 (UniProt Q15651)
inactive: erlotinib 0.048 | [1] -0.016 | [2] 0.09 | [3] 0.061 | [4] -0.092 | [5] 0.02 | [6] -0.046 | [7] 0.007 | [8] -0.084 | [9] -0.014 | IRAK-1-4 Inhibitor I -0.116 | ibrutinib 0.083 | [10] -0.017 | ralimetinib -0.08 | [11] 0.074 | [12] 0.145 | [13] 0.08 | pinometostat 0.02 | [14] 0.482 | [15] 0.263

HNRNPR isoform 2 (UniProt O43390)
inactive: erlotinib -0.097 | [1] -0.072 | [2] -0.298 | [3] 0.041 | [4] -0.007 | [5] 0.012 | [6] -0.031 | [7] -0.06 | [8] 0.038 | [9] -0.144 | IRAK-1-4 Inhibitor I -0.15 | ibrutinib 0.069 | [10] 0.003 | ralimetinib 0.101 | [11] 0.077 | [12] -0.063 | [13] 0.059 | pinometostat 0.135 | [14] 0.028 | [15] -0.294

HSD17B10 (UniProt Q99714)
inactive: erlotinib -0.02 | [1] 0.067 | [2] 0.114 | [3] 0.023 | [4] -0.041 | [5] -0.003 | [6] 0.071 | [7] 0.036 | [8] -0.054 | [9] 0.064 | IRAK-1-4 Inhibitor I -0.025 | ibrutinib -0.019 | [10] -0.02 | ralimetinib -0.029 | [11] -0.038 | [12] 0.07 | [13] -0.086 | pinometostat -0.105 | [14] -0.034 | [15] 0.058

HSD17B4 (UniProt P51659)
inactive: erlotinib -0.025 | [1] 0.051 | [2] 0.041 | [3] 0.059 | [4] 0.024 | [5] 0.01 | [6] -0.052 | [7] -0.014 | [8] -0.011 | [9] -0.013 | IRAK-1-4 Inhibitor I 0 | ibrutinib 0 | [10] -0.014 | ralimetinib -0.007 | [11] 0.036 | [12] 0.069 | [13] 0.005 | pinometostat 0.002 | [14] -0.006 | [15] 0.037

HSPA5 (UniProt P11021)
inactive: erlotinib -0.023 | [1] 0.005 | [2] -0.005 | [3] -0.019 | [4] -0.029 | [5] -0.004 | [6] -0.032 | [7] 0.021 | [8] 0.019 | [9] 0.017 | IRAK-1-4 Inhibitor I 0.026 | ibrutinib -0.028 | [10] 0 | ralimetinib -0.04 | [11] 0.038 | [12] 0.018 | [13] -0.015 | pinometostat -0.041 | [14] 0.022 | [15] -0.019

HIRIP3 (UniProt Q9BW71)
inactive: erlotinib 0.065 | [1] -0.023 | [2] 0.055 | [3] 0 | [4] 0.022 | [5] -0.031 | [6] -0.023 | [7] 0.032 | [8] -0.02 | [9] 0.006 | IRAK-1-4 Inhibitor I 0.015 | ibrutinib -0.019 | [10] -0.046 | ralimetinib -0.056 | [11] 0.004 | [12] -0.009 | [13] 0.023 | pinometostat -0.062 | [14] 0.03 | [15] -0.003

HSPG2 (UniProt P98160)
inactive: erlotinib -0.079 | [1] 0.027 | [2] 0.016 | [3] 0.01 | [4] 0.026 | [5] 0.013 | [6] -0.126 | [7] -0.006 | [8] 0.011 | [9] -0.051 | IRAK-1-4 Inhibitor I 0.058 | ibrutinib -0.022 | [10] -0.061 | ralimetinib 0.012 | [11] 0.041 | [12] 0.169 | [13] 0.071 | pinometostat 0.091 | [14] -0.003 | [15] 0.019

HMGA1 (UniProt P17096)
inactive: erlotinib -0.147 | [1] -0.108 | [2] -0.174 | [3] 0.012 | [4] -0.116 | [5] -0.025 | [6] -0.062 | [7] 0.198 | [8] 0.056 | [9] -0.045 | IRAK-1-4 Inhibitor I -0.131 | ibrutinib 0.012 | [10] -0.074 | ralimetinib 0.149 | [11] 0.228 | [12] 0.062 | [13] 0.195 | pinometostat 0.074 | [14] 0.029 | [15] 0.089
